In PMC10279916:
Results are given in words; binding and its absence hold for the method and conditions named. For part of these data: In cells and extracts the contact can be indirect. Some binding calls cover weakened binding; strength is not graded here. For part of these data: Where a sequence is shown, tags or fusion partners need not be part of it.

Chains of the proteins cited; added tags and fusions are not shown. Lines headed by an entry give the natural chain unless they say otherwise; changes in a name come on top.
UniProt Q01968: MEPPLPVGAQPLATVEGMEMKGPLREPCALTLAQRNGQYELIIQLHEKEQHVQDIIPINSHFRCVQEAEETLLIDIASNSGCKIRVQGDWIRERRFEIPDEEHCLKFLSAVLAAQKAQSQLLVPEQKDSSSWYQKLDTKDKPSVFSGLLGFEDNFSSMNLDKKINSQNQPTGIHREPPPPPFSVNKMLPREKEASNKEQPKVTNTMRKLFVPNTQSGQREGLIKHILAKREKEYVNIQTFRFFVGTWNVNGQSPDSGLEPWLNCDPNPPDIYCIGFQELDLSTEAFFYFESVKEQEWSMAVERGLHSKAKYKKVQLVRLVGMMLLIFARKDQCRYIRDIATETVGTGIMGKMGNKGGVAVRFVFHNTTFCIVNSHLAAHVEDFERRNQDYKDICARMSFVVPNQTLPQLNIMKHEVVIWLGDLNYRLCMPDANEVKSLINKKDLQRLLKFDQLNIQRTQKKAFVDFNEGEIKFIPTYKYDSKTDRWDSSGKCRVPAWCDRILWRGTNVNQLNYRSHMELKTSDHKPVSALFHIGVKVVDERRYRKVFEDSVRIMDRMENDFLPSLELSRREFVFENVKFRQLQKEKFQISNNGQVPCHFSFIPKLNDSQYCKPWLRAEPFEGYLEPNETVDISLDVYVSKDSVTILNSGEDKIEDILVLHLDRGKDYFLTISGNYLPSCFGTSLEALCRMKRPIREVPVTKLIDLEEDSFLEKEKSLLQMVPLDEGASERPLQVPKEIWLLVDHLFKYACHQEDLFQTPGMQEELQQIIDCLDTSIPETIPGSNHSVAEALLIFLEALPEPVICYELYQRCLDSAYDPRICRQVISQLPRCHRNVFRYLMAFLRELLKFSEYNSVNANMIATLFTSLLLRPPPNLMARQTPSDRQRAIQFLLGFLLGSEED

Key:
[1] = biological target: T1, full-length ORP4L in bait vector pGBKT7 (UniProt Q969R2); test: two-hybrid; bait in pGBKT7, prey in pGADT7, yeast strain AH109; growth on SD/4- and X-gal assay, 30 °C
T1 sequence: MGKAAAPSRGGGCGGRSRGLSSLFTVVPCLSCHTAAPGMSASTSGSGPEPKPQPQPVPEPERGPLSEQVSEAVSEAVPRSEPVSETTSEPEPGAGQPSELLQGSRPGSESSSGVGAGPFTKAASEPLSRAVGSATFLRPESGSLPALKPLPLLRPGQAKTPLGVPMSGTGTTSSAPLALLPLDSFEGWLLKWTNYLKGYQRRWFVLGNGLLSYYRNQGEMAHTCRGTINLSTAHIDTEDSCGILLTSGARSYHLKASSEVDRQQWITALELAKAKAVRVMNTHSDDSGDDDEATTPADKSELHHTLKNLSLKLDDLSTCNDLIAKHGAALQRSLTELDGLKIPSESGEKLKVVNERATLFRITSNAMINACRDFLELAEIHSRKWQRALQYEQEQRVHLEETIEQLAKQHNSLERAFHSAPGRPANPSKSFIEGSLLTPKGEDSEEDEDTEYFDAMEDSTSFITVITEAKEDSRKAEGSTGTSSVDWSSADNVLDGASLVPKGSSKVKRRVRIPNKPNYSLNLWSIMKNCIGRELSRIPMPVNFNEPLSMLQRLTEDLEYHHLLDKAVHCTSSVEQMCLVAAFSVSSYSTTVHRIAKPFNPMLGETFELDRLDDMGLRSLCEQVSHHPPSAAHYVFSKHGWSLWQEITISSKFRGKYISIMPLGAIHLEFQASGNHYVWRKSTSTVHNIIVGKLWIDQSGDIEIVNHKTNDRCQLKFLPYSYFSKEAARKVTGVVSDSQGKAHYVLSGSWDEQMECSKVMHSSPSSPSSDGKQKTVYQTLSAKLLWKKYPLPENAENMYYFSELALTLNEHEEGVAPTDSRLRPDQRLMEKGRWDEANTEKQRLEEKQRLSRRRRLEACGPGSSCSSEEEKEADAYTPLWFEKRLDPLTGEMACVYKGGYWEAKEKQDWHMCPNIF

[2] = biological target: T2, ORP4L/pVc-C1 (ORP4L fused to a Venus fragment) (UniProt Q969R2); test: split reporter; BiFC with Venus fragments in transfected Jurkat T-cells; read 24 or 36 h after transfection, with or without anti-CD3 (10 μg/ml, 5 min); confocal microscopy
T2 sequence: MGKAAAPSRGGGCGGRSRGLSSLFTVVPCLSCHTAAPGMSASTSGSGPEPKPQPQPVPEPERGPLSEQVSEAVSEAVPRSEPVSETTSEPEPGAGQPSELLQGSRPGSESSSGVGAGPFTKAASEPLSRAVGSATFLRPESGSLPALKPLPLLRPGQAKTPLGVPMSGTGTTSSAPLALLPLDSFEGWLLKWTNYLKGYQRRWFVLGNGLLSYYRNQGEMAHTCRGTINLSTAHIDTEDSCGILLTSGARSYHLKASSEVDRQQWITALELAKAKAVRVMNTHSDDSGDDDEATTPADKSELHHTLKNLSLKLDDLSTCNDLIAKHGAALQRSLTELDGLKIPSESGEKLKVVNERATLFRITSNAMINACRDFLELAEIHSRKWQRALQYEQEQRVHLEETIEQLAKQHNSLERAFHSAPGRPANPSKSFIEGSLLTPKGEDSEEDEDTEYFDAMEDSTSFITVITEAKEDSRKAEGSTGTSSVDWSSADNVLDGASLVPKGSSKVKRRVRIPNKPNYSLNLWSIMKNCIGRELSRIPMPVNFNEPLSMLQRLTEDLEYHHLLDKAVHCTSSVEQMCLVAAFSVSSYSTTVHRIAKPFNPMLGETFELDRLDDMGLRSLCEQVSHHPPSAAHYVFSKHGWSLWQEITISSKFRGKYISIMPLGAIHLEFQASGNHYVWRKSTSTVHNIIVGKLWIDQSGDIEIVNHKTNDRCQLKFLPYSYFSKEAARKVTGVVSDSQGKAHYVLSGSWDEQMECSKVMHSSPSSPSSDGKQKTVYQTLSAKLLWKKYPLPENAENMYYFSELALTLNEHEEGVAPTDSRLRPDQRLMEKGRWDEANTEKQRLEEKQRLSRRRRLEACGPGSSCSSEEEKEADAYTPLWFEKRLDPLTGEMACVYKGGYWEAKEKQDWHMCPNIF

[3] = biological target: T3, GST-ORP4L (OSBP-related protein 4L, wildtype) (UniProt Q969R2); test: pull-down; GST or GST fusions from E. coli lysate held on glutathione beads; Jurkat T-cell lysate added, 4 °C overnight; three washes with lysis buffer; Western blot with anti-OCRL or anti-ORP4L; only the target purified
T3 sequence: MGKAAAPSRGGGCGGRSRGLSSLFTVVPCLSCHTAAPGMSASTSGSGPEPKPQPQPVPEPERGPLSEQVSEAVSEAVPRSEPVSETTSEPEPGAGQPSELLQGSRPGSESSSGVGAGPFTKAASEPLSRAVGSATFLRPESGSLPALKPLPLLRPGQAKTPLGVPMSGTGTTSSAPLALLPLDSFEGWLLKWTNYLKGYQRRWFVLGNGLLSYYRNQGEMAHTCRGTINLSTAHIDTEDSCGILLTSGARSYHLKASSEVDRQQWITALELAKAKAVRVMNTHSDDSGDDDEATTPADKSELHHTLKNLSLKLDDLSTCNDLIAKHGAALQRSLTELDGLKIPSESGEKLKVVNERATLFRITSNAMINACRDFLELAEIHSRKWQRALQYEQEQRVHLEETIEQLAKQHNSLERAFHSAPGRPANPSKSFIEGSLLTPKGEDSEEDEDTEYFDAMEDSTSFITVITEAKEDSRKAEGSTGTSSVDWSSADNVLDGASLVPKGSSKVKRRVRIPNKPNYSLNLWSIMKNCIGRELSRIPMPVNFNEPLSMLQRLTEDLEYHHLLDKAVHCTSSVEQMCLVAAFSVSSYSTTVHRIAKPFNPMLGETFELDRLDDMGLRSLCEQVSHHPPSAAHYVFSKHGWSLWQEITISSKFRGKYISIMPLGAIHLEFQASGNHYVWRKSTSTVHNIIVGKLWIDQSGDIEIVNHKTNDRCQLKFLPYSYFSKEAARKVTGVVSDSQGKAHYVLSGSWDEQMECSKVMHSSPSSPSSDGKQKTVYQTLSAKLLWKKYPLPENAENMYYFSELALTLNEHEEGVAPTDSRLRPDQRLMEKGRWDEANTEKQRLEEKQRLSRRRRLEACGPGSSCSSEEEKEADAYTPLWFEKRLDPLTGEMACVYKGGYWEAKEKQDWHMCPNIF

[4] = biological target: GST-OCRL (oculocerebrorenal syndrome of Lowe 1, wildtype) (human) (UniProt Q01968); test: as above
[5] = biological target: endogenous OCRL of Jurkat T-cells (human (endogenous in Jurkat)) (UniProt Q01968); test: co-IP; endogenous proteins in Jurkat T-cell lysate (50 mM Tris-Cl, 150 mM NaCl, 0.5 mM MgCl2, 10% glycerol, 0.5% Triton X-100, pH 8.0); precipitation with 5 μg OCRL antibody or control IgG, Protein G-agarose; blot for ORP4L and OCRL
[6] = biological target: full-length OCRL1 in bait vector pGBKT7 (human) (UniProt Q01968); test: two-hybrid; bait in pGBKT7, prey in pGADT7, yeast strain AH109; growth on SD/4- and X-gal assay, 30 °C

For “OCRL segment containing aa 564 to 901 in prey vector pGADT7 (from UniProt Q01968 564-901) (domain or fragment)”, the binding [1] was “binds”.

In the case of “OCRL1/pVn-N1 (OCRL fused to a Venus fragment) (from UniProt Q01968 1-901)”, the binding [2] is reported as “binds”.

“OCRL protein in lysate of OCRL1-overexpressing Jurkat T-cells (from UniProt Q01968 1-901)” was tested, and the binding [3] was “binds”.

With “full-length OCRL1 in prey vector pGADT7 (from UniProt Q01968 1-901)” the binding [1] was “binds”.

For “endogenous OCRL of Jurkat T-cells (from UniProt Q01968 1-901)”, the binding [3] was “binds”.

B1: endogenous ORP4L of Jurkat T-cells (protein, UniProt Q969R2 1-916)
chain: MGKAAAPSRGGGCGGRSRGLSSLFTVVPCLSCHTAAPGMSASTSGSGPEPKPQPQPVPEPERGPLSEQVSEAVSEAVPRSEPVSETTSEPEPGAGQPSELLQGSRPGSESSSGVGAGPFTKAASEPLSRAVGSATFLRPESGSLPALKPLPLLRPGQAKTPLGVPMSGTGTTSSAPLALLPLDSFEGWLLKWTNYLKGYQRRWFVLGNGLLSYYRNQGEMAHTCRGTINLSTAHIDTEDSCGILLTSGARSYHLKASSEVDRQQWITALELAKAKAVRVMNTHSDDSGDDDEATTPADKSELHHTLKNLSLKLDDLSTCNDLIAKHGAALQRSLTELDGLKIPSESGEKLKVVNERATLFRITSNAMINACRDFLELAEIHSRKWQRALQYEQEQRVHLEETIEQLAKQHNSLERAFHSAPGRPANPSKSFIEGSLLTPKGEDSEEDEDTEYFDAMEDSTSFITVITEAKEDSRKAEGSTGTSSVDWSSADNVLDGASLVPKGSSKVKRRVRIPNKPNYSLNLWSIMKNCIGRELSRIPMPVNFNEPLSMLQRLTEDLEYHHLLDKAVHCTSSVEQMCLVAAFSVSSYSTTVHRIAKPFNPMLGETFELDRLDDMGLRSLCEQVSHHPPSAAHYVFSKHGWSLWQEITISSKFRGKYISIMPLGAIHLEFQASGNHYVWRKSTSTVHNIIVGKLWIDQSGDIEIVNHKTNDRCQLKFLPYSYFSKEAARKVTGVVSDSQGKAHYVLSGSWDEQMECSKVMHSSPSSPSSDGKQKTVYQTLSAKLLWKKYPLPENAENMYYFSELALTLNEHEEGVAPTDSRLRPDQRLMEKGRWDEANTEKQRLEEKQRLSRRRRLEACGPGSSCSSEEEKEADAYTPLWFEKRLDPLTGEMACVYKGGYWEAKEKQDWHMCPNIF
B1 was tested, and the binding [4] was “binds” and the binding [5] was “binds”.

B2: full-length ORP4L in prey vector pGADT7 (protein, UniProt Q969R2 1-916)
chain: MGKAAAPSRGGGCGGRSRGLSSLFTVVPCLSCHTAAPGMSASTSGSGPEPKPQPQPVPEPERGPLSEQVSEAVSEAVPRSEPVSETTSEPEPGAGQPSELLQGSRPGSESSSGVGAGPFTKAASEPLSRAVGSATFLRPESGSLPALKPLPLLRPGQAKTPLGVPMSGTGTTSSAPLALLPLDSFEGWLLKWTNYLKGYQRRWFVLGNGLLSYYRNQGEMAHTCRGTINLSTAHIDTEDSCGILLTSGARSYHLKASSEVDRQQWITALELAKAKAVRVMNTHSDDSGDDDEATTPADKSELHHTLKNLSLKLDDLSTCNDLIAKHGAALQRSLTELDGLKIPSESGEKLKVVNERATLFRITSNAMINACRDFLELAEIHSRKWQRALQYEQEQRVHLEETIEQLAKQHNSLERAFHSAPGRPANPSKSFIEGSLLTPKGEDSEEDEDTEYFDAMEDSTSFITVITEAKEDSRKAEGSTGTSSVDWSSADNVLDGASLVPKGSSKVKRRVRIPNKPNYSLNLWSIMKNCIGRELSRIPMPVNFNEPLSMLQRLTEDLEYHHLLDKAVHCTSSVEQMCLVAAFSVSSYSTTVHRIAKPFNPMLGETFELDRLDDMGLRSLCEQVSHHPPSAAHYVFSKHGWSLWQEITISSKFRGKYISIMPLGAIHLEFQASGNHYVWRKSTSTVHNIIVGKLWIDQSGDIEIVNHKTNDRCQLKFLPYSYFSKEAARKVTGVVSDSQGKAHYVLSGSWDEQMECSKVMHSSPSSPSSDGKQKTVYQTLSAKLLWKKYPLPENAENMYYFSELALTLNEHEEGVAPTDSRLRPDQRLMEKGRWDEANTEKQRLEEKQRLSRRRRLEACGPGSSCSSEEEKEADAYTPLWFEKRLDPLTGEMACVYKGGYWEAKEKQDWHMCPNIF
For B2, the binding [6] was “binds”.

B3: ORP4L segment containing aa 391 to 455 in prey vector pGADT7 (domain or fragment, UniProt Q969R2 391-455)
chain: YEQEQRVHLEETIEQLAKQHNSLERAFHSAPGRPANPSKSFIEGSLLTPKGEDSEEDEDTEYFDA
With B3 the binding [6] was “binds”.
